From paper PMC11817491

Target: 6x-His full-length CED-4S, wild type (C. elegans)
Assay: pull-down; GST-CED-9[1-251] and 6x-His CED-4S coexpressed in E. coli BL21(DE3); lysate normalised to CED-4 bound to Ni-NTA resin, 4°C, 2 hours; 25 mM Tris pH 8.0, 300 mM NaCl, 2 mM DTT, 25 mM imidazole wash; Western blot with anti-His and anti-GST; the results call it coimmunoprecipitation

B1: GST-CED-9[1-251], wild type (domain or fragment, UniProt P41958 1-251)
chain: MTRCTADNSLTNPAYRRRTMATGEMKEFLGIKGTEPTDFGINSDAQDLPSPSRQASTRRMSIGESIDGKINDWEEPRLDIEGFVVDYFTHRIRQNGMEWFGAPGLPCGVQPEHEMMRVMGTIFEKKHAENFETFCEQLLAVPRISFSLYQDVVRTVGNAQTDQCPMSYGRLIGLISFGGFVAAKMMESVELQGQVRNLFVYTSLFIKTRIRNNWKEHNRSWDDFMTLGKQMKEDYERAEAEKVGRRKQNRR
In the case of B1, the binding is reported as “binds”.

No constants are given. Whether binding was seen depends on the method and setting. Binding seen in cells or lysates may run through a third protein. A result given as binding can be weak or reduced; the word gives no strength. Tags and fused reporters may be left off the sequences shown.
